Source: PubChem BioAssay AID1259425 (University of Nebraska Medical Center, 2018)
Assay: 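Find knockdowns that reproduce the gene expression pattern seen when KSR1 is lost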 (primary screen). Cells: HCT116 human colon cancer cells. Knock-down reagent: siRNA pool against human genes, 50 nM siRNA. Measured: 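mRNA of six signature genes measured together by branched-DNA assay after 50 nM siRNA pool, blank removed, divided by geometric mean of two housekeeping genes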. Scale: BNIP3L mRNA: higher = more BNIP3L transcript after knockdown.
This is a random part of about 14,000 deposited reagents. Not all columns of the deposit are shown. The record does not give: the time to read-out.

GDF3 (growth differentiation factor 3)
- BNIP3L mRNA, set 1: 0.114

MT3 (metallothionein 3)
- BNIP3L mRNA, set 1: 0.0778

YRDC (yrdC N6-threonylcarbamoyltransferase domain containing)
- BNIP3L mRNA, set 1: 0.14

C3orf36 (chromosome 3 putative open reading frame 36)
- BNIP3L mRNA, set 1: 0.1

TLR3 (toll like receptor 3)
- BNIP3L mRNA, set 1: 0.0699

MRM2 (mitochondrial rRNA methyltransferase 2)
- BNIP3L mRNA, set 1: 0.0583

ILF3 (interleukin enhancer binding factor 3)
- BNIP3L mRNA, set 1: 0.0984

MYO7A (myosin VIIA)
- BNIP3L mRNA, set 1: 0.0756

KHDRBS1
- BNIP3L mRNA, set 1: 0.121

CD52 (CD52 molecule)
- BNIP3L mRNA, set 1: 0.062

APIP (APAF1 interacting protein)
- BNIP3L mRNA, set 1: 0.122

ZNF182 (zinc finger protein 182)
- BNIP3L mRNA, set 1: 0.166

NOL7 (nucleolar protein 7)
- BNIP3L mRNA, set 1: 0.205

BET1L (Bet1 golgi vesicular membrane trafficking protein like)
- BNIP3L mRNA, set 1: 0.0589

UTP20 (UTP20 small subunit processome component)
- BNIP3L mRNA, set 1: 0.0826

ACAD11 (acyl-CoA dehydrogenase family member 11)
- BNIP3L mRNA, set 1: 0.24

DNAH7 (dynein axonemal heavy chain 7)
- BNIP3L mRNA, set 1: 0.102

BOLL (boule RNA binding protein)
- BNIP3L mRNA, set 1: 0.0745

CA6 (carbonic anhydrase 6)
- BNIP3L mRNA, set 1: 0.354

CD2BP2 (CD2 cytoplasmic tail binding protein 2)
- BNIP3L mRNA, set 1: 0.183

PARVB (parvin beta)
- BNIP3L mRNA, set 1: 0.178

H2AC12 (H2A clustered histone 12)
- BNIP3L mRNA, set 1: 0.133

HRH3 (histamine receptor H3)
- BNIP3L mRNA, set 1: 0.216

SENP6 (SUMO specific peptidase 6)
- BNIP3L mRNA, set 1: 0.0797

RUVBL1 (RuvB like AAA ATPase 1)
- BNIP3L mRNA, set 1: 0.0606

DFFA (DNA fragmentation factor subunit alpha)
- BNIP3L mRNA, set 1: 0.0491

ZCCHC3 (zinc finger CCHC-type containing 3)
- BNIP3L mRNA, set 1: 0.164

FARP2 (FERM, ARH/RhoGEF and pleckstrin domain protein 2)
- BNIP3L mRNA, set 1: 0.0824

CD48 (CD48 molecule)
- BNIP3L mRNA, set 1: 0.0545

ARSJ (arylsulfatase family member J)
- BNIP3L mRNA, set 1: 0.231

CCDC144A (coiled-coil domain containing 144A)
- BNIP3L mRNA, set 1: 0.207

NMT1 (N-myristoyltransferase 1)
- BNIP3L mRNA, set 1: 0.0838

MYL9 (myosin light chain 9)
- BNIP3L mRNA, set 1: 0.104

KCNJ5 (potassium inwardly rectifying channel subfamily J member 5)
- BNIP3L mRNA, set 1: 0.287

PAK5 (p21 (RAC1) activated kinase 5)
- BNIP3L mRNA, set 1: 0.131

PTPN21 (protein tyrosine phosphatase non-receptor type 21)
- BNIP3L mRNA, set 1: 0.0494

6 consecutive entries already listed:
BOLL (boule RNA binding protein)
- BNIP3L mRNA, set 1: 0.0745

CA6 (carbonic anhydrase 6)
- BNIP3L mRNA, set 1: 0.354

CD2BP2 (CD2 cytoplasmic tail binding protein 2)
- BNIP3L mRNA, set 1: 0.183

PARVB (parvin beta)
- BNIP3L mRNA, set 1: 0.178

H2AC12 (H2A clustered histone 12)
- BNIP3L mRNA, set 1: 0.133

HRH3 (histamine receptor H3)
- BNIP3L mRNA, set 1: 0.216
